Laboratory results published in paper PMC12368267.
No constants are given. Whether binding was seen depends on the method and setting. Binding seen in cells or lysates may run through a third protein. Here binding means that the protein was enriched with, or labelled near, the bait; the list need not be complete.

By UniProt entry, the sequences of proteins in these tests, tags left out. Where a name states a change or a piece, a line headed by the entry shows the natural chain unless it says otherwise.
UniProt P16455: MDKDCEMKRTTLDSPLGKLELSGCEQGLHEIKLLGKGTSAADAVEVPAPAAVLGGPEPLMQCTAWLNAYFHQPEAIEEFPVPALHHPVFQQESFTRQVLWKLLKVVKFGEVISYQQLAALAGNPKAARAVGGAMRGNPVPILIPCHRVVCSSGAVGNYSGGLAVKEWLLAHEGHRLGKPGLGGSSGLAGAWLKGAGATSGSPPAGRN
UniProt Q93009: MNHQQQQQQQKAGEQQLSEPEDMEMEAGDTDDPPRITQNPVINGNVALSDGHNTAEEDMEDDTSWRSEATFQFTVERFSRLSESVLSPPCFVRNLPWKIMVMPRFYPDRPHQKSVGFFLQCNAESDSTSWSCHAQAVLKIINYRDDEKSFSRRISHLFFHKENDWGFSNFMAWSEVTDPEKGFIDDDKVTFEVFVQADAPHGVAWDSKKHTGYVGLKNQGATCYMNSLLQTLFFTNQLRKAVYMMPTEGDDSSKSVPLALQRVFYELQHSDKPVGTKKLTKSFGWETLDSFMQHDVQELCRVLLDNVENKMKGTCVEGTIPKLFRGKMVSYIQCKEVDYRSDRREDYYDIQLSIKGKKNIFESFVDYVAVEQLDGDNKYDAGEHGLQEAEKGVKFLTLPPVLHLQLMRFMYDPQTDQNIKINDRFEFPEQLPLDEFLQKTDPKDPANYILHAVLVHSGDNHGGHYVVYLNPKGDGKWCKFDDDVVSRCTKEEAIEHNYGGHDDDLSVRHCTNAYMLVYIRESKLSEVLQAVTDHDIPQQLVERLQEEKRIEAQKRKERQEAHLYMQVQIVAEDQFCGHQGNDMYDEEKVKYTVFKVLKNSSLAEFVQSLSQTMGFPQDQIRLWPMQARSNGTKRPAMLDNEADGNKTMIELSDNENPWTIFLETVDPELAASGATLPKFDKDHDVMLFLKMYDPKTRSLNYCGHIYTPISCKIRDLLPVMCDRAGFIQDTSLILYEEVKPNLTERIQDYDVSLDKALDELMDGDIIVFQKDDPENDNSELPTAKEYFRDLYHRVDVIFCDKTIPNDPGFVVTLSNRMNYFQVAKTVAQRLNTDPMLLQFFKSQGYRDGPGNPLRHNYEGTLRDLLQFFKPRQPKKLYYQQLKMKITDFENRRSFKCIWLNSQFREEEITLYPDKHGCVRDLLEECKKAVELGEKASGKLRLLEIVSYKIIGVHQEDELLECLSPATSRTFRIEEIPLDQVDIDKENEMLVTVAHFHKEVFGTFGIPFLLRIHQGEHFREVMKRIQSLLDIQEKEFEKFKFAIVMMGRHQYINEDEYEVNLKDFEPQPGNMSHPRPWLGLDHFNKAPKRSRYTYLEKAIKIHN

Biological target: Flag-tagged MGMT (O6-methylguanine-DNA-methyltransferase), expressed in T98G cells (UniProt P16455)
Assay: affinity purification with mass spectrometry; T98G cells stably expressing Flag-MGMT lysed; anti-Flag M2 affinity beads overnight at 4 °C; five washes; elution with Flag peptides; LC-MS/MS

| binding | Molecule |
| --- | --- |
| binds | ubiquitin-specific protease 7 (USP7), endogenous in T98G cells (from UniProt Q93009 1-1102) (enzyme) |
| binds | USP31, endogenous in T98G cells (enzyme, UniProt Q70CQ4 1-1352) MSKVTAPGSGPPAAASGKEKRSFSKRLFRSGRAGGGGAGGPGASGPAAPSSPSSPSSARSVGSFMSRVLKTLSTLSHLSSEGAAPDRGGLRSCFPPGPAAAPTPPPCPPPPASPAPPACAAEPVPGVAGLRNHGNTCFMNATLQCLSNTELFAEYLALGQYRAGRPEPSPDPEQPAGRGAQGQGEVTEQLAHLVRALWTLEYTPQHSRDFKTIVSKNALQYRGNSQHDAQEFLLWLLDRVHEDLNHSVKQSGQPPLKPPSETDMMPEGPSFPVCSTFVQELFQAQYRSSLTCPHCQKQSNTFDPFLCISLPIPLPHTRPLYVTVVYQGKCSHCMRIGVAVPLSGTVARLREAVSMETKIPTDQIVLTEMYYDGFHRSFCDTDDLETVHESDCIFAFETPEIFRPEGILSQRGIHLNNNLNHLKFGLDYHRLSSPTQTAAKQGKMDSPTSRAGSDKIVLLVCNRACTGQQGKRFGLPFVLHLEKTIAWDLLQKEILEKMKYFLRPTVCIQVCPFSLRVVSVVGITYLLPQEEQPLCHPIVERALKSCGPGGTAHVKLVVEWDKETRDFLFVNTEDEYIPDAESVRLQRERHHQPQTCTLSQCFQLYTKEERLAPDDAWRCPHCKQLQQGSITLSLWTLPDVLIIHLKRFRQEGDRRMKLQNMVKFPLTGLDMTPHVVKRSQSSWSLPSHWSPWRRPYGLGRDPEDYIYDLYAVCNHHGTMQGGHYTAYCKNSVDGLWYCFDDSDVQQLSEDEVCTQTAYILFYQRRTAIPSWSANSSVAGSTSSSLCEHWVSRLPGSKPASVTSAASSRRTSLASLSESVEMTGERSEDDGGFSTRPFVRSVQRQSLSSRSSVTSPLAVNENCMRPSWSLSAKLQMRSNSPSRFSGDSPIHSSASTLEKIGEAADDKVSISCFGSLRNLSSSYQEPSDSHSRREHKAVGRAPLAVMEGVFKDESDTRRLNSSVVDTQSKHSAQGDRLPPLSGPFDNNNQIAYVDQSDSVDSSPVKEVKAPSHPGSLAKKPESTTKRSPSSKGTSEPEKSLRKGRPALASQESSLSSTSPSSPLPVKVSLKPSRSRSKADSSSRGSGRHSSPAPAQPKKESSPKSQDSVSSPSPQKQKSASALTYTASSTSAKKASGPATRSPFPPGKSRTSDHSLSREGSRQSLGSDRASATSTSKPNSPRVSQARAGEGRGAGKHVRSSSMASLRSPSTSIKSGLKRDSKSEDKGLSFFKSALRQKETRRSTDLGKTALLSKKAGGSSVKSVCKNTGDDEAERGHQPPASQQPNANTTGKEQLVTKDPASAKHSLLSARKSKSSQLDSGVPSSPGGRQSAEKSSKKLSSSMQTSARPSQKPQ |
